Results are given in words; binding and its absence hold for the method and conditions named. Binding seen in cells or lysates may run through a third protein. Some results given as binding are weak or reduced against the parent protein; the word gives no strength.
What was measured:
[1] = target: ribosomal protein S5b (D. melanogaster) (UniProt Q9VFE4); assay: co-IP
[2] = target: ribosomal protein S5b (D. melanogaster) (UniProt Q9VFE4); assay: co-sedimentation

Sequences of proteins named here, by UniProt entry; tags and fusion partners are left off.
UniProt P29327: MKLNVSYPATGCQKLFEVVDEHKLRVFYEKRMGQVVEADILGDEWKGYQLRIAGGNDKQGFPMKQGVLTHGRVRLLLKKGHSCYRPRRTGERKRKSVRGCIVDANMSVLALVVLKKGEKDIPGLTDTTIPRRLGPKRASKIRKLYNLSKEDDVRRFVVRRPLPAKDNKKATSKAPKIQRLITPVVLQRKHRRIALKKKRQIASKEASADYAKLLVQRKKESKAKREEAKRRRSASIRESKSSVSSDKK

Substance: ribosomal protein S6 (from UniProt P29327 1-248)
- binding [1]: binds
- binding [2]: binds

From article doi:10.1101/600502
